In assay [1] the target is T1, FLAG-tagged endoglin (UniProt P17813).
T1 sequence: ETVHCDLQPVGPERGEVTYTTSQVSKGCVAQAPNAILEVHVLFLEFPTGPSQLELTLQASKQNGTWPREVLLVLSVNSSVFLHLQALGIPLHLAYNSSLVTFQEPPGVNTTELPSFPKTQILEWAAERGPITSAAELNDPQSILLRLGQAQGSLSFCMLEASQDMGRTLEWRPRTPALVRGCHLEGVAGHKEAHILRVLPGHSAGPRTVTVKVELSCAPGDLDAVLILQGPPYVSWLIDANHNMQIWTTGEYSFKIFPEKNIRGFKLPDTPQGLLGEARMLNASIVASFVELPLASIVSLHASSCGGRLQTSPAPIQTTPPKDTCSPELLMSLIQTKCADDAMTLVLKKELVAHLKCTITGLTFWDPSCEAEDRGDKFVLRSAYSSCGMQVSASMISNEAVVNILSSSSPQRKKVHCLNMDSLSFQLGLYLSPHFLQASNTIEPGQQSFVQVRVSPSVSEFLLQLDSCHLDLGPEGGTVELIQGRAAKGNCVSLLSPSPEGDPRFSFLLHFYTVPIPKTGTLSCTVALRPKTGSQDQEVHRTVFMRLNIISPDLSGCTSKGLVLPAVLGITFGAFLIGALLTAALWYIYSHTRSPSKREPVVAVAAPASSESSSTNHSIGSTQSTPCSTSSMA
Put plainly: co-IP; PC3-M cells transiently co-transfected; surface proteins crosslinked with 2 mM DTSSP before lysis (10 mM Tris HCl pH 7.4, 145 mM NaCl, 10% glycerol, 0.5% NP-40); IP with anti-FLAG or anti-Myc overnight at 4°C; crosslinker cleaved before Western blot. (In general: A western blot detects proteins with antibodies after separation by electrophoresis.)

Chains of the proteins cited; added tags and fusions are not shown. Residues count along the entry.
UniProt Q13873, residues 27-1038: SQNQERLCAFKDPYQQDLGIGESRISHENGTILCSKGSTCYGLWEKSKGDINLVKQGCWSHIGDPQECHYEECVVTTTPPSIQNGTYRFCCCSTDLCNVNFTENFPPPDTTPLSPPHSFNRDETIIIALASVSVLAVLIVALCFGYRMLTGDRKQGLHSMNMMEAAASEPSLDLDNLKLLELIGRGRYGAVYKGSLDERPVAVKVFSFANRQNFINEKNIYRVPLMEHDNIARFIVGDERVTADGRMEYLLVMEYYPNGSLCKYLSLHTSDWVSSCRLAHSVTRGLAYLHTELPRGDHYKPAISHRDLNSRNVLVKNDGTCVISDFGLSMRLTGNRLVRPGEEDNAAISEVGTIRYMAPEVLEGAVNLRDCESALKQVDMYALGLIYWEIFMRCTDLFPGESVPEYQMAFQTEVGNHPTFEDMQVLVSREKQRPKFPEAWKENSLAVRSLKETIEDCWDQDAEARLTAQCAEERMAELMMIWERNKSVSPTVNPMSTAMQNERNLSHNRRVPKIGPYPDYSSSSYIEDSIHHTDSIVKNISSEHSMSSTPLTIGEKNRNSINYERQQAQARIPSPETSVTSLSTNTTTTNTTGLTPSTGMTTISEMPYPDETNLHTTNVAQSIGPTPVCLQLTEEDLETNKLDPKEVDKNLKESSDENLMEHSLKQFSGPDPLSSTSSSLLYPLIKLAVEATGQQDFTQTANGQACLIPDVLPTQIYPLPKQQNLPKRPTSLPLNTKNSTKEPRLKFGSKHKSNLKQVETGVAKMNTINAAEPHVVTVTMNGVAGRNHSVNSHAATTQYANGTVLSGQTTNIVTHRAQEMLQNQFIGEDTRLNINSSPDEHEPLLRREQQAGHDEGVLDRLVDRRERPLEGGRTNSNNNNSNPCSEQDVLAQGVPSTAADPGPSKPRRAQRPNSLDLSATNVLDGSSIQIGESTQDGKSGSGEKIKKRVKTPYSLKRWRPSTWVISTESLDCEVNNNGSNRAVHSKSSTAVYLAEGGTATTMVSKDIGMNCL
UniProt P27037, residues 20-513: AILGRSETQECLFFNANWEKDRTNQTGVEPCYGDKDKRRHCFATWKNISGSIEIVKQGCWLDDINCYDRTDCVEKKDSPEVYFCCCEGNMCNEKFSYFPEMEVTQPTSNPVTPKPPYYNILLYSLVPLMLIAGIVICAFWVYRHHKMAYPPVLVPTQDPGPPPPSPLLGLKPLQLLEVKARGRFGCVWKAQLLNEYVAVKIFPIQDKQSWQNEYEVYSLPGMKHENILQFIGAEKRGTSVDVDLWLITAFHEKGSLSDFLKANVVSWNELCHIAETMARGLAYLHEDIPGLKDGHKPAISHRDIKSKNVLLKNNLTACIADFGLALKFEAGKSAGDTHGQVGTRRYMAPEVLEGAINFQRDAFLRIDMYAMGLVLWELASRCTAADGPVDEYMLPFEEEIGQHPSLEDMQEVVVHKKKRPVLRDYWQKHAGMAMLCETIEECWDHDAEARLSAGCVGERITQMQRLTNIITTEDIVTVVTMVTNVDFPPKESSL

For assay [2], the target named is FLAG-tagged wild type bone morphogenetic protein receptor type II (UniProt Q13873). The description is as above.
In assay [3] the target is Myc-tagged wild type activin A receptor type IIA (UniProt P27037). The description is as above.
The target in assay [4] is FLAG-tagged wild type bone morphogenetic protein receptor type II (UniProt Q13873). Put plainly: condition: only without crosslinking of cell surface proteins; co-IP; as a1 but surface proteins of the PC3-M cells not crosslinked (-); FLAG-BMPRII immunoprecipitated, blot for endoglin.

Results are given in words; binding and its absence hold for the method and conditions named. Binding seen in cells or lysates may run through a third protein. Some entries that bind do so weakly or less than the wild type. Where a sequence is shown, tags or fusion partners need not be part of it.

Among the data in PMC3742533 are binding values, retold here.

“Myc-tagged wild type activin A receptor type IIA (from UniProt P27037 20-513)”: the binding result in assay [1] and in assay [2] was “binds” in each case.

Regarding “FLAG-tagged wild type bone morphogenetic protein receptor type II (from UniProt Q13873 27-1038)”, in assay [3], the binding entry was “binds”.

B1: FLAG-tagged endoglin (receptor, UniProt P17813 26-658)
chain: ETVHCDLQPVGPERGEVTYTTSQVSKGCVAQAPNAILEVHVLFLEFPTGPSQLELTLQASKQNGTWPREVLLVLSVNSSVFLHLQALGIPLHLAYNSSLVTFQEPPGVNTTELPSFPKTQILEWAAERGPITSAAELNDPQSILLRLGQAQGSLSFCMLEASQDMGRTLEWRPRTPALVRGCHLEGVAGHKEAHILRVLPGHSAGPRTVTVKVELSCAPGDLDAVLILQGPPYVSWLIDANHNMQIWTTGEYSFKIFPEKNIRGFKLPDTPQGLLGEARMLNASIVASFVELPLASIVSLHASSCGGRLQTSPAPIQTTPPKDTCSPELLMSLIQTKCADDAMTLVLKKELVAHLKCTITGLTFWDPSCEAEDRGDKFVLRSAYSSCGMQVSASMISNEAVVNILSSSSPQRKKVHCLNMDSLSFQLGLYLSPHFLQASNTIEPGQQSFVQVRVSPSVSEFLLQLDSCHLDLGPEGGTVELIQGRAAKGNCVSLLSPSPEGDPRFSFLLHFYTVPIPKTGTLSCTVALRPKTGSQDQEVHRTVFMRLNIISPDLSGCTSKGLVLPAVLGITFGAFLIGALLTAALWYIYSHTRSPSKREPVVAVAAPASSESSSTNHSIGSTQSTPCSTSSMA
With B1, the binding entry in assay [3] is recorded as “binds”.

B2: untagged endoglin (receptor, UniProt P17813 26-658)
chain: ETVHCDLQPVGPERGEVTYTTSQVSKGCVAQAPNAILEVHVLFLEFPTGPSQLELTLQASKQNGTWPREVLLVLSVNSSVFLHLQALGIPLHLAYNSSLVTFQEPPGVNTTELPSFPKTQILEWAAERGPITSAAELNDPQSILLRLGQAQGSLSFCMLEASQDMGRTLEWRPRTPALVRGCHLEGVAGHKEAHILRVLPGHSAGPRTVTVKVELSCAPGDLDAVLILQGPPYVSWLIDANHNMQIWTTGEYSFKIFPEKNIRGFKLPDTPQGLLGEARMLNASIVASFVELPLASIVSLHASSCGGRLQTSPAPIQTTPPKDTCSPELLMSLIQTKCADDAMTLVLKKELVAHLKCTITGLTFWDPSCEAEDRGDKFVLRSAYSSCGMQVSASMISNEAVVNILSSSSPQRKKVHCLNMDSLSFQLGLYLSPHFLQASNTIEPGQQSFVQVRVSPSVSEFLLQLDSCHLDLGPEGGTVELIQGRAAKGNCVSLLSPSPEGDPRFSFLLHFYTVPIPKTGTLSCTVALRPKTGSQDQEVHRTVFMRLNIISPDLSGCTSKGLVLPAVLGITFGAFLIGALLTAALWYIYSHTRSPSKREPVVAVAAPASSESSSTNHSIGSTQSTPCSTSSMA
B2: the binding result in assay [4] is “no binding”; in assay [2], “binds”.
